According to publication PMC2873957:
Construct, isoform or probe ends are uncertain for at least one entry. Where cells or extracts were used, other partners may take part. For some assays here: Weaker means in comparison with the reference protein, sequence or condition of that experiment.

Amino acid sequences for entries named in this document (tags omitted). A change or cut given only in a name is not applied to a line headed by its entry.
UniProt Q01860: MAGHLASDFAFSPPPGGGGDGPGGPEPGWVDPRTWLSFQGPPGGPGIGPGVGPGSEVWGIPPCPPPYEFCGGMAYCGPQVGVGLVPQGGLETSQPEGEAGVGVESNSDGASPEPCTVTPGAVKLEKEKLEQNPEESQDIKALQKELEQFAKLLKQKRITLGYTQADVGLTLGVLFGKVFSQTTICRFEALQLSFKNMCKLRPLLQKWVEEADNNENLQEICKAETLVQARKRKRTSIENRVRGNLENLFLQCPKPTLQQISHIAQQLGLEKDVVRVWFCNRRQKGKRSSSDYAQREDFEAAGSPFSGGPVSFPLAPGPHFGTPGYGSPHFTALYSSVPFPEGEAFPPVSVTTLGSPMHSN

Columns and labels:
[1] = biological target: OCT4 (human (NCCIT embryonal carcinoma cells)) (UniProt Q01860); assay: EMSA supershift; conditions: anti-OCT4 sc-9081, 20-fold unlabelled competitor tested; EMSA: 40 ug NCCIT nuclear extract in 40 ul, 50 nM Cy5 probe, 5 ug poly-dGdC, 1 ug/ul BSA, 1 uM competitor, 6% native PAGE 0.5X TBE; protein in an extract; label: 5' Cy5 on both strands
[2] = biological target: OCT4 (human (NCCIT embryonal carcinoma cells)) (UniProt Q01860); assay: biotinylated DNA pull-down, western blot; conditions: 300X scrambled oligo, poly-GdC, pull-down: 20 mM HEPES pH 7.9, 20% glycerol, 100 mM KCl, 0.83 mM EDTA, 1.66 mM DTT, 4 C, 8 h, protein in an extract

| Sequence | binding result [1] | also measured |
| --- | --- | --- |
| ATGCGCATATGTAAAAAGCCTTTTTTCCGGC (double strand) [GADD45G_L probe (OCT4 motif at 9-15)] | binds |  |
| GGTTTTTTTTTTCCCATCCCCCACCCCCAGCAGTGCATTATTATGCAGTCACTGCTTTTGTTCCGAGTTCTGAGCCTGCTTCTATTTGCATCGTAACCTCTTTGGGGGCCTTTG (double strand) [USP44 conserved promoter fragment] |  | binding result ([2]; label: biotin (5' tag)): binds |
| GGTTTTTTTTTTCTCTCCGACCTGTCGTCACCGGATTTCGCCCCGCCTTCGTTTCTTGGCCCATGCTGTATTCCTTAAATGGACAGATACCATATCGTTGTACCGGCTCTTTTG (double strand) [USP44 scrambled] |  | binding result ([2]; label: biotin): binds more weakly |
| TCTGCAGCTACTTTTGCATTACAATGGCCTTGGTGAG (double strand) [NANOG promoter OCT4-SOX2 probe] | binds |  |
| TTACTTAAATGCGCATATGTAAAAAGCCTTT (double strand) [GADD45G_R probe (OCT4 motif at 17-23)] | binds |  |
